Some of the results follow.
Assays:
Test in all cases: log2 fold change, soluble protein after heating vs DMSO (PISA); higher = thermal stabilisation; K562 lysate, 10 uM; active = over 0.2 and 3.5 SD of the protein, either way, in both replicates (recomputed)
[1] = compound: CS(=O)(=O)CCNCc1ccc(-c2ccc3ncnc(Nc4ccc(OCc5cccc(F)c5)c(Cl)c4)c3c2)o1 [lapatinib]
Method in brief: (§1)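 Thermal stability, expressed as log-two fold change relative to solvent controls, is given from duplicates. Crude K562 extract in PBS pH 7.4 with 1 mM MgCl2, at 1 mg/mL protein, was treated with 10 μM compound for 30 min and heated in aliquots for 3 min across 48°C-58°C. After pooling, adjustment to 0.5% NP-40 at 4°C and centrifugation at 21,000xg for 90 min, supernatant protein was measured by TMTpro 16plex LC-MS/MS with channel sums equalised.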

Amino acid sequences for entries named in this document (tags omitted). A change or cut given only in a name is not applied to a line headed by its entry.
UniProt Q13227: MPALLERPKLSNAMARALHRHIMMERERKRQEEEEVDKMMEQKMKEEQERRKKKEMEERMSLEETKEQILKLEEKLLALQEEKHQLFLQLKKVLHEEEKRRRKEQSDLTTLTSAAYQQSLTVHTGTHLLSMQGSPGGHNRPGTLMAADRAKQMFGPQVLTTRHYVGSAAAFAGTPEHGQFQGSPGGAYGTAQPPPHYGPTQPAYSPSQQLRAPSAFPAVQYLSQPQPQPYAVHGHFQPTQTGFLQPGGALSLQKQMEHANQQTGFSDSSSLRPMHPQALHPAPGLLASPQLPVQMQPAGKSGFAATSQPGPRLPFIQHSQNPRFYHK
UniProt Q8IXQ4: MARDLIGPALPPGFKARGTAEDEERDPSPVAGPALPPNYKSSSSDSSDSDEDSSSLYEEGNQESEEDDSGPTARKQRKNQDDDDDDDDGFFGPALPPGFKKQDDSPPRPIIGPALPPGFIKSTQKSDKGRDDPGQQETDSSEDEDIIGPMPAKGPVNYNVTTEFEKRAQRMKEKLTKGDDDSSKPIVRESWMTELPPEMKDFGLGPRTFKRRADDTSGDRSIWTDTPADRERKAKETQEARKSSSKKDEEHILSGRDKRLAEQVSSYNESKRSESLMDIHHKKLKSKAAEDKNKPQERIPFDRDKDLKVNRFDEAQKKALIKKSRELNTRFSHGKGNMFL
UniProt Q9BRX5: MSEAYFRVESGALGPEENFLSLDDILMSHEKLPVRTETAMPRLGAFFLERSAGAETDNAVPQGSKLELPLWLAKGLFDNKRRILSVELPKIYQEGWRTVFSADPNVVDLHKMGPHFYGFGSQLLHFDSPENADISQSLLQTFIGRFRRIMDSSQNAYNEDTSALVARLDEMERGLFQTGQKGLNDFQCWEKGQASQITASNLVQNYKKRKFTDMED
UniProt Q9HCN4, whole entry, looked up: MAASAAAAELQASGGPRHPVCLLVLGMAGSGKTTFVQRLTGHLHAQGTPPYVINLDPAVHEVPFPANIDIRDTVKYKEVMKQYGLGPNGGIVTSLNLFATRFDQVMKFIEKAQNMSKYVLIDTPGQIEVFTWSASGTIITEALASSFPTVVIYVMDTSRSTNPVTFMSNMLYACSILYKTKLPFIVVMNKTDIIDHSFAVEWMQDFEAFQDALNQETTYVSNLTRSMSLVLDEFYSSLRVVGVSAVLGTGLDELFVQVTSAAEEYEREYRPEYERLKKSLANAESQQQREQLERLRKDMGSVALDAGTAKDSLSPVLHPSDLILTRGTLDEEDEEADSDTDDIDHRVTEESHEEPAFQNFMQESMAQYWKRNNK
UniProt Q08378: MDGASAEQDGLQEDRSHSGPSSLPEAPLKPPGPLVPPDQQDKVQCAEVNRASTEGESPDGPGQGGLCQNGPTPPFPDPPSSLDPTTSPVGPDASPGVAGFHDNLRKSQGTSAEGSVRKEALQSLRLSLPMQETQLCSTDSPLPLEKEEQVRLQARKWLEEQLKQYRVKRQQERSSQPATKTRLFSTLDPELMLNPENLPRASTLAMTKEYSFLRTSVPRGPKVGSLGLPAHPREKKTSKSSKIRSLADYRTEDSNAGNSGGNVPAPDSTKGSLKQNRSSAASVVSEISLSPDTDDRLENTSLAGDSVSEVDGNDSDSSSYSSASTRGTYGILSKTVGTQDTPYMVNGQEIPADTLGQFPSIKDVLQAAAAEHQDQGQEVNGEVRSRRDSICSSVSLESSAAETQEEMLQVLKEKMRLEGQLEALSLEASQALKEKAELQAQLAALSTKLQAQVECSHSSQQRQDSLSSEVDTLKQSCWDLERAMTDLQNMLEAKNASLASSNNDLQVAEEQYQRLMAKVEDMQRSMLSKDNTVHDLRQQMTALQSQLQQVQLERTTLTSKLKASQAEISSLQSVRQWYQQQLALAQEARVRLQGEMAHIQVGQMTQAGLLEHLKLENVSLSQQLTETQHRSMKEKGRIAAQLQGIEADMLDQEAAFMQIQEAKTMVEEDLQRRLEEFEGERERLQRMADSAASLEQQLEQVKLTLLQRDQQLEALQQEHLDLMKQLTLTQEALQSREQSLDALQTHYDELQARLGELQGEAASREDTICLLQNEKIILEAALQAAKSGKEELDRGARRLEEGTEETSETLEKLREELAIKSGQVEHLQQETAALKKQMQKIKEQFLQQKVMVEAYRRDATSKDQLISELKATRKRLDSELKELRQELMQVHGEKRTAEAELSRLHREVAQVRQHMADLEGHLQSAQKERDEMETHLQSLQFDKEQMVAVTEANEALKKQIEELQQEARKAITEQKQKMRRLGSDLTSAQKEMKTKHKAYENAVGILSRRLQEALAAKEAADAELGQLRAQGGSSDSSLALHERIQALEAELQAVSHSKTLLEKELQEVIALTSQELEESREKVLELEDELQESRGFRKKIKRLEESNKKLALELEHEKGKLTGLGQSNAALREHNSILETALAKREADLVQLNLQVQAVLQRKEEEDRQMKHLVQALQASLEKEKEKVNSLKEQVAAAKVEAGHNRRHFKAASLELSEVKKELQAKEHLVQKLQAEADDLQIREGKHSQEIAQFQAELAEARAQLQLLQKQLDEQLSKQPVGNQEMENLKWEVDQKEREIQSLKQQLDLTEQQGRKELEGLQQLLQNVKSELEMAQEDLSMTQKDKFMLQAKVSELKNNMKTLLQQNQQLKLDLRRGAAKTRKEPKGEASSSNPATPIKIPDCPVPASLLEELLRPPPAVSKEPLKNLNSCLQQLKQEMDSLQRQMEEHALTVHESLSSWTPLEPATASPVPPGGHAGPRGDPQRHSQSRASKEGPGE
UniProt O75420: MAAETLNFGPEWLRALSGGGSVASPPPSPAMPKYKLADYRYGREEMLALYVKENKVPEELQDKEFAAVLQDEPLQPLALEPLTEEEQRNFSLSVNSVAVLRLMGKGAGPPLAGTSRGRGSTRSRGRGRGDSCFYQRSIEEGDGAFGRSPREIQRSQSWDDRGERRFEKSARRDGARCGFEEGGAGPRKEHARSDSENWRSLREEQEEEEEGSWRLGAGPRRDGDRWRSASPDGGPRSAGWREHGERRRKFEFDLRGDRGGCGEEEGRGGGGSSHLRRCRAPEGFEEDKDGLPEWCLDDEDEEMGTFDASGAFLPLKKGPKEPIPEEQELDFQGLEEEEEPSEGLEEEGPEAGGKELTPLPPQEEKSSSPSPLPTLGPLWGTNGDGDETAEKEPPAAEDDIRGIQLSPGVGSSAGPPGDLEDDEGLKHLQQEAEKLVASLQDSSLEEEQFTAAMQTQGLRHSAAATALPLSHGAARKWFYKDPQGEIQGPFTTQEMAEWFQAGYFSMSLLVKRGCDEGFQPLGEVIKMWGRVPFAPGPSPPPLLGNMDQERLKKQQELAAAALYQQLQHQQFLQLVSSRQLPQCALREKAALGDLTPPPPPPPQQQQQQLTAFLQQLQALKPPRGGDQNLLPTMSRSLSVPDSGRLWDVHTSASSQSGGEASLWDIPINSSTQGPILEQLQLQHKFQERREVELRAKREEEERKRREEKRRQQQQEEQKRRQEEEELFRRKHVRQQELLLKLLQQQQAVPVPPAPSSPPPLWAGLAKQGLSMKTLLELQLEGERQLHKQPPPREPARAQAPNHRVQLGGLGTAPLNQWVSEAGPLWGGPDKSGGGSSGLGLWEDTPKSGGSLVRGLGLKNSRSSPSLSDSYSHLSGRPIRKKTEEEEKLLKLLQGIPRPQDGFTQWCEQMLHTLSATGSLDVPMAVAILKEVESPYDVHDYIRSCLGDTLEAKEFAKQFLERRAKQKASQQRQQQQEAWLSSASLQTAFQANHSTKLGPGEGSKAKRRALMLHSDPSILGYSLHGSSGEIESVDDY
UniProt Q9NQX3: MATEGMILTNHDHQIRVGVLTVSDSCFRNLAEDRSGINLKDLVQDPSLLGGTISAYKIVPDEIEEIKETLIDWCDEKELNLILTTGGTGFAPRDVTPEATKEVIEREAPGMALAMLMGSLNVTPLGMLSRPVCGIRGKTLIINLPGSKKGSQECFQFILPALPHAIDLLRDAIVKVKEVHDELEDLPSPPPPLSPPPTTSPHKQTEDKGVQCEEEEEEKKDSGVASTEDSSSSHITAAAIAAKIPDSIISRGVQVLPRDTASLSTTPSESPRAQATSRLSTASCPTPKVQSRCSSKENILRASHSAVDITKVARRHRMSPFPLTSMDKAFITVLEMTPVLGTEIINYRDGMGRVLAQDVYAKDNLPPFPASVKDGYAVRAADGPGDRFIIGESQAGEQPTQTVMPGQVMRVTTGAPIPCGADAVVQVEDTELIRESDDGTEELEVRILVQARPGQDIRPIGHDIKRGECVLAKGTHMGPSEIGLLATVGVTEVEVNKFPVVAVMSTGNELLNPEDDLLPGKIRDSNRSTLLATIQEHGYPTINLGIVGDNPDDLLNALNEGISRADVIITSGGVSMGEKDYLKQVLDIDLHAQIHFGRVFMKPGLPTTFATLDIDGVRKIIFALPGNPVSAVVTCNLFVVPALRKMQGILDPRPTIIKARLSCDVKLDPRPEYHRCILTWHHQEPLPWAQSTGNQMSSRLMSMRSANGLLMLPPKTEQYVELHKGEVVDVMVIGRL
UniProt Q9BXV9: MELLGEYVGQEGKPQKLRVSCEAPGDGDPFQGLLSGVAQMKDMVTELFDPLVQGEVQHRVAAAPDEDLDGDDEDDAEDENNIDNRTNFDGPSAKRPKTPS
UniProt O14653: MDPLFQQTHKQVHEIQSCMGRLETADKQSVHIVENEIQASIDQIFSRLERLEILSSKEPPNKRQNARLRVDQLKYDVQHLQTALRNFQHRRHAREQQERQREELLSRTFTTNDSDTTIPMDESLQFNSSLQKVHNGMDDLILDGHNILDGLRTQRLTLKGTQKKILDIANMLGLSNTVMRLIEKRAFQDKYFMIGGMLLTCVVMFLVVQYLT
UniProt Q9BYB4: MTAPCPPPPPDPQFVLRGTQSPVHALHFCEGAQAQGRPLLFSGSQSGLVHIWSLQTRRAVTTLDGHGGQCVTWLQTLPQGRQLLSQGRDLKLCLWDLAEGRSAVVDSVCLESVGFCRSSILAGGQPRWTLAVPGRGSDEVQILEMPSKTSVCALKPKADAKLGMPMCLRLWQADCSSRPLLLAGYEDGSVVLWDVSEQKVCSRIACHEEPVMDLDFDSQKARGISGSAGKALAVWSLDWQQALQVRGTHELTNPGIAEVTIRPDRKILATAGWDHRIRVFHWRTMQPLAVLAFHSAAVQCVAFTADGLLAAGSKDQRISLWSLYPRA
UniProt P16520, whole entry, looked up: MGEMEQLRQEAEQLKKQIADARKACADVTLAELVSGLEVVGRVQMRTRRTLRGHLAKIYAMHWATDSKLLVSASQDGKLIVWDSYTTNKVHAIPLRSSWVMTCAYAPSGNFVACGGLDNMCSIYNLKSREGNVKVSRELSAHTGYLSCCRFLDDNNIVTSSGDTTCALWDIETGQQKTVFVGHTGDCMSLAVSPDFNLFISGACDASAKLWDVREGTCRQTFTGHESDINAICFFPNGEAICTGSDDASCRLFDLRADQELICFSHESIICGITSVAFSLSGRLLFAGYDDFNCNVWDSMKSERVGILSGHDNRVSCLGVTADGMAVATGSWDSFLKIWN
UniProt Q9H4A5: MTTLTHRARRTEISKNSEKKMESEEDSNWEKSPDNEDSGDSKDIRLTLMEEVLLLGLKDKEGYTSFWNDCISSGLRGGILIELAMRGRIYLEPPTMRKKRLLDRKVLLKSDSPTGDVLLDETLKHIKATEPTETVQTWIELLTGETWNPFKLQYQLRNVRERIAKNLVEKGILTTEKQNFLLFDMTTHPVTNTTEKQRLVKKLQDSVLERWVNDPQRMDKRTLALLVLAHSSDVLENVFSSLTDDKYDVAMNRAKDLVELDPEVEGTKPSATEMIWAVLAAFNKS
UniProt Q9H4A6: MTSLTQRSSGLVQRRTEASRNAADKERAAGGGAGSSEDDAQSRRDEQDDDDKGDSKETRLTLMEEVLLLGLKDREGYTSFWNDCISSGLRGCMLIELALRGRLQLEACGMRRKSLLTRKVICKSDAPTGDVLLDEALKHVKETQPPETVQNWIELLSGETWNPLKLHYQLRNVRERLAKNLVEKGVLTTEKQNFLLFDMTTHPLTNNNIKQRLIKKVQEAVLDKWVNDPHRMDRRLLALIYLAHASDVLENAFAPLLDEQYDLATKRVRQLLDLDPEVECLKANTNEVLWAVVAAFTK
UniProt Q14344, whole entry, looked up: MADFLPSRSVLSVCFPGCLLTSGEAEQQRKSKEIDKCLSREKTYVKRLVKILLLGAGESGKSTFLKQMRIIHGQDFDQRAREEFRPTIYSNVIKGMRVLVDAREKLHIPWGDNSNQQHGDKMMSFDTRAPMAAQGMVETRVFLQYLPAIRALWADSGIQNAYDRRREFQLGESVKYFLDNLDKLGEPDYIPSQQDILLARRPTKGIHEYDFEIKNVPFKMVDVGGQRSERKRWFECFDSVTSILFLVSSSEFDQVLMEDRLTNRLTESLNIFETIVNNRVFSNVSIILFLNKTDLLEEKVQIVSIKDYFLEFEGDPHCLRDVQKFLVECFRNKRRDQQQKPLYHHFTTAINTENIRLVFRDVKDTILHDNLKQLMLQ

[2] = compound: CS(=O)(=O)N1CCN(Cc2cc3nc(-c4cccc5[nH]ncc45)nc(N4CCOCC4)c3s2)CC1 [pictilisib]
Method in brief: as §1

[3] = compound: C[C@@H](Oc1cc(-c2cnn(C3CCNCC3)c2)cnc1N)c1c(Cl)ccc(F)c1Cl [crizotinib]
Method in brief: as §1

[4] = compound: C[C@H](C1=CC=C(C=C1)C(=O)NC2=C3C=CNC3=NC=C2)N
Method in brief: as §1

[5] = compound: C[C@H](Nc1ncnc2nc[nH]c12)c1cc2cccc(Cl)c2c(=O)n1-c1ccccc1 [duvelisib]
Method in brief: as §1

[6] = compound: Cc1cc(Nc2cc(CN3CCOCC3)c3nc(C)c(Cc4ccc(Cl)cc4F)n3n2)n[nH]1 [gandotinib]
Method in brief: as §1

[7] = compound: Cc1cc(Nc2cc(N3CCN(C)CC3)nc(Sc3ccc(NC(=O)C4CC4)cc3)n2)n[nH]1 [tozasertib]
Method in brief: as §1

[8] = compound: Cc1ccc(-n2nc(C(C)(C)C)cc2NC(=O)Nc2ccc(OCCN3CCOCC3)c3ccccc23)cc1 [doramapimod]
Method in brief: as §1

[9] = compound: Cc1ccc(NC(=O)c2ccc(CN3CC[C@H](N(C)C)C3)c(C(F)(F)F)c2)cc1Nc1nccc(-c2cncnc2)n1 [bafetinib]
Method in brief: as §1

[10] = compound: Cc1cccc(CC(=O)N2CCc3c2ccc(-c2cn(C)c4ncnc(N)c24)c3F)n1
Method in brief: as §1

[11] = compound: Cc1cn(-c2cc(NC(=O)c3ccc(C)c(Nc4nccc(-c5cccnc5)n4)c3)cc(C(F)(F)F)c2)cn1 [nilotinib]
Method in brief: as §1

[12] = compound: Cc1nc(Nc2n[nH]c3c2CN(C(=O)N[C@H](CN(C)C)c2ccccc2)C3(C)C)c2sccc2n1
Method in brief: as §1

[13] = compound: Cc1nc(Nc2ncc(C(=O)Nc3c(C)cccc3Cl)s2)cc(N2CCN(CCO)CC2)n1 [dasatinib]
Method in brief: as §1

[14] = compound: Cc1ncc(-c2ccnc(Nc3ccc(S(C)(=O)=O)cc3)n2)n1C(C)C
Method in brief: as §1

[15] = compound: Cn1cc(-c2ccc3c(c2)CCN3C(=O)Cc2cccc(C(F)(F)F)c2)c2c(N)ncnc21
Method in brief: as §1

[16] = compound: Cn1cc(CNCC2CCN(c3ncc(C(=O)NO)cn3)CC2)c2ccccc21 [quisinostat]
Method in brief: as §1

[17] = compound: Cn1cncc1[C@@](N)(c1ccc(Cl)cc1)c1ccc2c(c1)c(-c1cccc(Cl)c1)cc(=O)n2C [tipifarnib]
Method in brief: as §1

[18] = compound: NC(=O)Nc1cc(-c2cccc(F)c2)sc1C(=O)N[C@H]1CCCNC1
Method in brief: as §1

[19] = compound: NC(=O)c1cnc(N[C@@H]2CCCC[C@@H]2N)nc1Nc1cccc(-n2nccn2)c1
Method in brief: as §1

[20] = compound: NC1(c2ccc(-c3nc4ccn5c(=O)[nH]nc5c4cc3-c3ccccc3)cc2)CCC1
Method in brief: as §1

Measured: log2 fold change

GPS2 (UniProt Q13227)
inactive: [1] 0.031 | [2] -0.24 | [3] 0.119 | [4] 0.052 | [5] -0.012 | [6] -0.103 | [7] 0.043 | [8] -0.075 | [9] -0.269 | [10] -0.032 | [11] -0.007 | [12] -0.063 | [13] -0.018 | [14] -0.006 | [15] 0.025 | [16] 0.036 | [17] -0.078 | [18] 0.008 | [19] -0.037 | [20] 0.034

GPALPP1 (UniProt Q8IXQ4)
inactive: [1] 0.005 | [2] -0.012 | [3] 0.008 | [4] 0.02 | [5] 0.03 | [6] 0.025 | [7] -0.028 | [8] -0.033 | [9] -0.044 | [10] -0.01 | [11] -0.05 | [12] -0.013 | [13] 0.041 | [14] 0.049 | [15] -0.042 | [16] 0.013 | [17] 0.022 | [18] 0 | [19] -0.009 | [20] -0.002

GINS3 (UniProt Q9BRX5)
inactive: [1] 0.011 | [2] 0.005 | [3] 0.018 | [4] 0.024 | [5] -0.058 | [6] -0.021 | [7] 0.07 | [8] -0.026 | [9] -0.027 | [10] -0.026 | [11] 0.023 | [12] 0.009 | [13] -0.029 | [14] -0.083 | [15] 0.032 | [16] 0.027 | [17] 0.029 | [18] 0.007 | [19] 0 | [20] 0.081

GPN1 isoform 5 (UniProt Q9HCN4)
inactive: [1] 0.004 | [2] -0.007 | [3] -0.002 | [4] -0.072 | [5] 0.023 | [6] 0.038 | [7] -0.002 | [8] -0.019 | [9] 0.027 | [10] 0.022 | [11] -0.006 | [12] -0.005 | [13] 0.002 | [14] 0.021 | [15] -0.055 | [16] -0.027 | [17] 0.037 | [18] 0 | [19] -0.015 | [20] -0.005

GOLGA3 (UniProt Q08378)
inactive: [1] -0.006 | [2] -0.02 | [3] 0.008 | [4] 0.004 | [5] 0.027 | [6] 0.013 | [7] 0.002 | [8] -0.013 | [9] -0.008 | [10] -0.021 | [11] 0 | [12] -0.016 | [13] -0.02 | [14] 0.002 | [15] 0.008 | [16] -0.019 | [17] -0.021 | [18] -0.012 | [19] -0.002 | [20] -0.005

GIGYF1 (UniProt O75420)
inactive: [1] 0.049 | [2] -0.039 | [3] 0.019 | [4] -0.084 | [5] -0.026 | [6] 0.063 | [7] -0.043 | [8] 0.007 | [9] 0 | [10] 0.121 | [11] -0.03 | [12] 0.013 | [13] -0.078 | [14] -0.013 | [15] -0.003 | [16] -0.156 | [17] -0.053 | [18] 0.03 | [19] 0.057 | [20] 0.104

GPHN isoform 2 (UniProt Q9NQX3)
inactive: [1] -0.001 | [2] -0.007 | [3] 0.012 | [4] -0.026 | [5] 0.027 | [6] 0.033 | [7] 0.02 | [8] 0.002 | [9] 0.001 | [10] 0.008 | [11] -0.005 | [12] 0.015 | [13] 0.01 | [14] -0.007 | [15] -0.012 | [16] -0.022 | [17] 0.008 | [18] 0.006 | [19] -0.02 | [20] 0.01

GON7 (UniProt Q9BXV9)
inactive: [1] 0.076 | [2] 0.032 | [3] -0.024 | [4] 0.161 | [5] 0.013 | [6] -0.081 | [7] -0.004 | [8] 0.03 | [9] 0.086 | [10] -0.058 | [11] 0.004 | [12] 0.087 | [13] -0.007 | [14] 0.083 | [15] 0.015 | [16] 0.049 | [17] 0.051 | [18] -0.109 | [19] -0.01 | [20] -0.031

GOSR2 isoform 2 (UniProt O14653)
inactive: [1] -0.062 | [2] -0.101 | [3] 0.04 | [4] 0.047 | [5] 0.002 | [6] -0.085 | [7] -0.009 | [8] -0.042 | [9] -0.066 | [10] 0.053 | [11] 0.033 | [12] -0.114 | [13] -0.021 | [14] -0.048 | [15] -0.003 | [16] 0.028 | [17] -0.082 | [18] 0.029 | [19] 0.02 | [20] 0.026

GOSR1 (UniProt O95249)
inactive: [1] 0.01 | [2] 0.007 | [3] -0.059 | [4] 0.027 | [5] -0.014 | [6] -0.005 | [7] 0.054 | [8] 0.049 | [9] -0.028 | [10] 0.051 | [11] -0.02 | [12] 0.016 | [13] -0.043 | [14] 0.038 | [15] -0.032 | [16] 0.02 | [17] -0.028 | [18] -0.009 | [19] -0.022 | [20] -0.014

GOLGA4 isoform 5 (UniProt Q13439)
inactive: [1] -0.005 | [2] -0.025 | [3] -0.016 | [4] -0.1 | [5] 0.016 | [6] 0.008 | [7] 0.004 | [8] 0.011 | [9] -0.034 | [10] 0.057 | [11] -0.02 | [12] 0.003 | [13] -0.018 | [14] -0.005 | [15] -0.01 | [16] -0.052 | [17] 0.004 | [18] 0.02 | [19] 0.009 | [20] -0.008

GNB1L (UniProt Q9BYB4)
inactive: [1] 0.021 | [2] -0.009 | [3] -0.031 | [4] -0.016 | [5] -0.007 | [6] 0.041 | [7] -0.02 | [8] 0.142 | [9] -0.02 | [10] 0.047 | [11] 0.013 | [12] 0.007 | [13] 0.063 | [14] -0.035 | [15] 0 | [16] -0.031 | [17] -0.013 | [18] -0.025 | [19] -0.026 | [20] -0.015

GNB3 (UniProt P16520)
inactive: [1] -0.083 | [2] 0.014 | [3] -0.114 | [4] -0.112 | [5] -0.127 | [6] 0.099 | [7] 0.08 | [8] 0.071 | [9] -0.164 | [10] 0.095 | [11] -0.095 | [12] 0.058 | [13] -0.155 | [14] -0.017 | [15] -0.079 | [16] -0.144 | [17] -0.075 | [18] 0.082 | [19] 0.054 | [20] -0.103

GOLPH3L (UniProt Q9H4A5)
inactive: [1] 0.019 | [2] -0.048 | [3] -0.106 | [4] -0.028 | [5] -0.027 | [6] -0.05 | [7] -0.071 | [8] -0.009 | [9] -0.146 | [10] 0.029 | [11] -0.045 | [12] 0.033 | [13] 0 | [14] -0.006 | [15] 0.01 | [16] -0.026 | [17] 0.018 | [18] 0.094 | [19] 0.013 | [20] -0.039

GOLPH3 (UniProt Q9H4A6)
inactive: [1] 0.007 | [2] -0.013 | [3] -0.123 | [4] -0.049 | [5] 0.005 | [6] 0.034 | [7] 0.025 | [8] 0.031 | [9] -0.073 | [10] 0.045 | [11] -0.008 | [12] 0.008 | [13] -0.071 | [14] 0.044 | [15] -0.013 | [16] -0.065 | [17] -0.039 | [18] 0.012 | [19] -0.023 | [20] -0.02

2 entries picked at random from the list so far:
GOLPH3 (UniProt Q9H4A6)
inactive: [1] 0.007 | [2] -0.013 | [3] -0.123 | [4] -0.049 | [5] 0.005 | [6] 0.034 | [7] 0.025 | [8] 0.031 | [9] -0.073 | [10] 0.045 | [11] -0.008 | [12] 0.008 | [13] -0.071 | [14] 0.044 | [15] -0.013 | [16] -0.065 | [17] -0.039 | [18] 0.012 | [19] -0.023 | [20] -0.02

GOLPH3L (UniProt Q9H4A5)
inactive: [1] 0.019 | [2] -0.048 | [3] -0.106 | [4] -0.028 | [5] -0.027 | [6] -0.05 | [7] -0.071 | [8] -0.009 | [9] -0.146 | [10] 0.029 | [11] -0.045 | [12] 0.033 | [13] 0 | [14] -0.006 | [15] 0.01 | [16] -0.026 | [17] 0.018 | [18] 0.094 | [19] 0.013 | [20] -0.039

(list continues)

GNA13 (UniProt Q14344)
inactive: [1] -0.045 | [2] 0.001 | [3] -0.013 | [4] -0.076 | [5] -0.006 | [6] 0.023 | [7] 0.034 | [8] 0.03 | [9] -0.051 | [10] 0.036 | [11] 0.007 | [12] -0.01 | [13] -0.002 | [14] -0.031 | [15] 0.02 | [16] -0.008 | [17] 0.045 | [18] 0.021 | [19] -0.003 | [20] -0.013

— the supplement of paper PMC10849652
